Data taken from PubChem BioAssay AID1347076 (National Center for Advancing Translational Sciences (NCATS), 2019).
Hit rate of the full screen: of about 400,000 compounds, about 13,000 (3.2%) were called active. Inconclusive means that the source gave no clear call. Such entries were picked first, then a sample of the others. Calls follow the shape of the dose curve; as a rule, active = well fitted cell-killing curve with a large enough effect; inconclusive = small, poorly fitted or top-dose-only effect, or effect the other way; inactive = flat fitted curve, though single readings scatter. Where the call is inconclusive, the potency comes from a doubtful curve fit.

Test: qHTS assay for MDR1-selective chemotherapeutics: Primary screen using the drug-selected MDR subline cells KB-V1; also: nearly all actives have a fitted effect of over 60% in size
Conditions: KB-V1 MDR cells viability, CellTiter-Glo, 72 h; activity change, negative = cytotoxicity: at 46.1 µM (top of the series)
How it was run: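 Cytotoxicity via CellTiter-Glo luminescence after 72 h compound exposure at 37 degrees C. Cells: drug-selected KB-V1 line, DMEM phenol-red free plus 10% FBS. Compounds tested at multiple concentrations; normalized data fitted to concentration-effect curves.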
% is scaled to controls: 0 for no effect and ±100 for the full control effect; potency is read from the fitted curve at half-maximal effect.

Q: With `O=c1[nH]c(C2CCN(S(=O)(=O)c3ccc(C(F)(F)F)cc3)CC2)nc2c1nnn2Cc1ccc(F)cc1` as the compound, how does the Potency read?
A: The Potency was inconclusive: 29.1 µM [rising, partial curve, poor fit].

Q: With `Cc1ccsc1-c1cc2nc(NCCOc3ccccc3Cl)n(C)c(=O)c2s1` as the compound, how does the Potency read?
A: The Potency was inconclusive: 20.6 µM [cytotoxic, partial curve].

Q: For `COc1ccc(Nc2nc3ccccc3nc2NS(=O)(=O)c2ccc(Cl)cc2)cc1OC`, which Potency is on record?
A: Its Potency is inconclusive: 7.31 µM [cytotoxic, partial curve].

Q: For `COc1ccc(C(=O)CC(=O)C(=O)Nc2c(C)cccc2C)cc1`, which Potency is on record?
A: Its Potency is inconclusive: 14.6 µM [cytotoxic, partial curve, poor fit].

Q: For `Cc1cccc(C)c1NC(=O)C(c1ccccc1)N1CCN(c2ccc(C(F)(F)F)cn2)CC1` (stereo unspecified), which “activity change, negative = cytotoxicity” value is on record?
A: The value was inactive: 10.8%.

Q: With `O=C(O)C1CCC(NSc2ccccc2[N+](=O)[O-])CC1` (stereo unspecified) as the compound, how does the Potency read?
A: Its Potency is inconclusive: 2.91 µM [cytotoxic, full curve].

Q: Which Potency does the source give for `Cc1cccc(-c2nsc(SCC(=O)NCc3ccco3)n2)c1` here?
A: The Potency was active: 20.6 µM.

Q: Which “activity change, negative = cytotoxicity” value does the source give for `CCOC(=O)c1cccc(NC(=O)CSc2nc3cc4ccccc4cc3[nH]2)c1` here?
A: The value was inactive: -1.9%.

Q: For `O=C(CN1C(=O)NC2(CCCC2)C1=O)OCCOc1cccc(Br)c1`, which “activity change, negative = cytotoxicity” value is on record?
A: The value was inactive: 17.9%.

Q: For `Cc1ccc(C)c(N2CCN(C(=O)Cn3c(=O)[nH]c4ccsc4c3=O)CC2)c1`, which Potency is on record?
A: Its Potency is active: 20.6 µM.

Q: With `COc1cccc(C(=O)Oc2c(CN3CCOCC3)cc(Cl)c3cccnc23)c1` as the compound, how does the Potency read?
A: Its Potency is active: 7.31 µM.

Q: Which Potency does the source give for `CSc1ncccc1C(=O)NCCc1ccccc1` here?
A: The Potency was inconclusive: 0.92 µM [rising, full curve, poor fit].

Q: With `Cc1cccc(NC(=O)CN(C)S(=O)(=O)c2ccc(Cl)cc2)n1` as the compound, how does the Potency read?
A: The Potency was active: 16.4 µM.

Q: Which “activity change, negative = cytotoxicity” value does the source give for `O=c1c(Cc2ccccc2)c(O)c2cccc3c4c(n1c23)CCCC4` here?
A: The value was inactive: 4.5%.

Q: Which “activity change, negative = cytotoxicity” value does the source give for `Cc1c(C#N)c(N=CN(C)C)c(C(=O)c2ccc(Br)cc2)n1-c1ccccc1` here?
A: The value was inactive: -10%.

Q: Which Potency does the source give for `CCN(CC(=O)Nc1c(F)cccc1F)C(=O)Cc1sc(C)nc1-c1ccc(F)cc1` here?
A: The Potency was inconclusive: 9.2 µM [cytotoxic, partial curve].

Q: With `COc1ccc(C(=O)NC(C)CCc2ccccc2)c(O)c1` (stereo unspecified) as the compound, how does the “activity change, negative = cytotoxicity” value read?
A: The value was inactive: -0.44%.

Q: Which Potency does the source give for `Cc1ccc(NC(=S)Nc2ccc3nc(-c4ccccn4)c(-c4ccccn4)nc3c2)cc1C` here?
A: The Potency was inconclusive: 14.6 µM [cytotoxic, partial curve].

Q: For `COc1cccc(CNC23CC4CC(CC(C4)C2)C3)c1OCc1ccccc1`, which Potency is on record?
A: The Potency was active: 20.6 µM.

Q: With `CCCn1c(N)c(C(=O)CN(C)CC(=O)Nc2cc(C)ccc2C)c(=O)[nH]c1=O` as the compound, how does the “activity change, negative = cytotoxicity” value read?
A: Its value is inactive: 0%.

Q: For `COc1ccc(/C=N/NC(=O)c2cccc(S(=O)(=O)N3CCCC3)c2)cc1O`, which Potency is on record?
A: The Potency was inconclusive: 29.1 µM [rising, single point].
